# Data source: PubChem BioAssay AID1259308 (NCATS, 2017)
# Screen: 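Candidate targets for better recombinant protein yield in mammalian cells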 (primary screen)
# System: human HEK293 embryonic kidney cells stably expressing firefly luciferase (HEK-CMV-Luc2-Hygro)
# Knock-down reagent: single siRNA against human genes, 0.8 pmol siRNA per well
# Duration: 72 h
# Detection: 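Reporter luminescence and viable-cell signal on separate replicate plates, given as percent of non-targeting control and median/MAD z-scores, plus per-cell luciferase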
# Reading the numbers: total luciferase, z-score: higher = more reporter protein produced
# Active means: 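An siRNA counts as active if its total luciferase robust z-score exceeds 3; genes with two or more such siRNAs out of three were retested with fresh siRNAs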
# Calls: active = raised luciferase; inactive = no rise
# The deposit covers about 59,000 reagents; this is a part drawn at random. About 1,510 of all reagents (2.6%) count as active. 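Calls use total luciferase alone and ignore viability, so some active siRNAs may act by altering cell number.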 Entries without a mark were called inactive. Reagents against one gene are numbered here. Further read-outs or replicates are left out here.
gene,reagent,"total luciferase, z-score"
KRT8P3 (keratin 8 pseudogene 3),1,0.606
KRT8P3 (keratin 8 pseudogene 3),2,0.395
KRT8P3 (keratin 8 pseudogene 3),3,-0.775
CELA1 (chymotrypsin like elastase 1),1,-1.53
CELA1 (chymotrypsin like elastase 1),2,0.594
CELA1 (chymotrypsin like elastase 1),3,0.24
CCDC192 (coiled-coil domain containing 192),1,0.284
CCDC192 (coiled-coil domain containing 192),2,1.15
CCDC192 (coiled-coil domain containing 192),3,-0.877
PANX2 (pannexin 2),1,-0.437
PANX2 (pannexin 2),2,0.566
PANX2 (pannexin 2),3,0.338
C4orf50 (chromosome 4 open reading frame 50),1,0.31
C4orf50 (chromosome 4 open reading frame 50),2,0.578
C4orf50 (chromosome 4 open reading frame 50),3,1.03
ABCD3 (ATP binding cassette subfamily D member 3),1,-0.422
ABCD3 (ATP binding cassette subfamily D member 3),2,-0.831
ABCD3 (ATP binding cassette subfamily D member 3),3,-0.466
RSF1 (remodeling and spacing factor 1),1,0.588
RSF1 (remodeling and spacing factor 1),2,0.872
RSF1 (remodeling and spacing factor 1),3,-0.506
FAM162B (family with sequence similarity 162 member B),1,-2.15
FAM162B (family with sequence similarity 162 member B),2,0.0335
FAM162B (family with sequence similarity 162 member B),3,-1.38
CLIC1 (CLIC family member 1),1,0.814
CLIC1 (CLIC family member 1),2,0.0688
CLIC1 (CLIC family member 1),3,0.113
MYT1 (myelin transcription factor 1),1,-0.821
MYT1 (myelin transcription factor 1),2,-0.3
MYT1 (myelin transcription factor 1),3,-0.285
HSD17B14 (hydroxysteroid 17-beta dehydrogenase 14),1,0.0369
HSD17B14 (hydroxysteroid 17-beta dehydrogenase 14),2,-2.18
HSD17B14 (hydroxysteroid 17-beta dehydrogenase 14),3,1.06
HNRNPU (heterogeneous nuclear ribonucleoprotein U),1,0.859
HNRNPU (heterogeneous nuclear ribonucleoprotein U),2,0.398
HNRNPU (heterogeneous nuclear ribonucleoprotein U),3,-1.1
AQP7 (aquaporin 7),1,0.483
AQP7 (aquaporin 7),2,-0.706
AQP7 (aquaporin 7),3,1.8
EPHX4 (epoxide hydrolase 4),1,1.33
EPHX4 (epoxide hydrolase 4),2,-0.33
EPHX4 (epoxide hydrolase 4),3,-0.708
RCCD1 (RCC1 domain containing 1),1,-0.437
RCCD1 (RCC1 domain containing 1),2,-0.829
RCCD1 (RCC1 domain containing 1),3,-0.254
HSPA4 (heat shock protein family A (Hsp70) member 4),1,-0.812
HSPA4 (heat shock protein family A (Hsp70) member 4),2,1.07
HSPA4 (heat shock protein family A (Hsp70) member 4),3,-0.949
ZC3H7B (zinc finger CCCH-type containing 7B),1,-2.46
ZC3H7B (zinc finger CCCH-type containing 7B),2,-0.917
ZC3H7B (zinc finger CCCH-type containing 7B),3,-2.44
IFT172 (intraflagellar transport 172),1,0.622
IFT172 (intraflagellar transport 172),2,0.459
IFT172 (intraflagellar transport 172),3,-0.904
UPK2 (uroplakin 2),1,0.264
UPK2 (uroplakin 2),2,0.0285
UPK2 (uroplakin 2),3,-0.0429
PEX11G (peroxisomal biogenesis factor 11 gamma),1,1.87
PEX11G (peroxisomal biogenesis factor 11 gamma),2,-0.765
PEX11G (peroxisomal biogenesis factor 11 gamma),3,2.12
CD164 (CD164 molecule),1,-0.246
CD164 (CD164 molecule),2,-0.252
CD164 (CD164 molecule),3,0.371
VAT1 (vesicle amine transport 1),1,-0.341
VAT1 (vesicle amine transport 1),2,-0.0964
VAT1 (vesicle amine transport 1),3,-1.44
CD68 (CD68 molecule),1,2.01
CD68 (CD68 molecule),2,-1.69
CD68 (CD68 molecule),3,0.219
COXFA4L2 (cytochrome c oxidase hypoxia associated subunit FA4L2),1,0.896
COXFA4L2 (cytochrome c oxidase hypoxia associated subunit FA4L2),2,0.417
COXFA4L2 (cytochrome c oxidase hypoxia associated subunit FA4L2),3,0.00179
CYP19A1 (cytochrome P450 family 19 subfamily A member 1),1,0.0426
CYP19A1 (cytochrome P450 family 19 subfamily A member 1),2,-0.753
CYP19A1 (cytochrome P450 family 19 subfamily A member 1),3,2.17
